These are yes or no findings as the source states them, for the method shown. In cells and extracts the contact can be indirect. Some entries that bind do so weakly or less than the wild type. Tags and fused reporters may be left off the sequences shown.
T1: Tgfbrap1-FLAG (human) (UniProt Q8WUH2)
T1 sequence: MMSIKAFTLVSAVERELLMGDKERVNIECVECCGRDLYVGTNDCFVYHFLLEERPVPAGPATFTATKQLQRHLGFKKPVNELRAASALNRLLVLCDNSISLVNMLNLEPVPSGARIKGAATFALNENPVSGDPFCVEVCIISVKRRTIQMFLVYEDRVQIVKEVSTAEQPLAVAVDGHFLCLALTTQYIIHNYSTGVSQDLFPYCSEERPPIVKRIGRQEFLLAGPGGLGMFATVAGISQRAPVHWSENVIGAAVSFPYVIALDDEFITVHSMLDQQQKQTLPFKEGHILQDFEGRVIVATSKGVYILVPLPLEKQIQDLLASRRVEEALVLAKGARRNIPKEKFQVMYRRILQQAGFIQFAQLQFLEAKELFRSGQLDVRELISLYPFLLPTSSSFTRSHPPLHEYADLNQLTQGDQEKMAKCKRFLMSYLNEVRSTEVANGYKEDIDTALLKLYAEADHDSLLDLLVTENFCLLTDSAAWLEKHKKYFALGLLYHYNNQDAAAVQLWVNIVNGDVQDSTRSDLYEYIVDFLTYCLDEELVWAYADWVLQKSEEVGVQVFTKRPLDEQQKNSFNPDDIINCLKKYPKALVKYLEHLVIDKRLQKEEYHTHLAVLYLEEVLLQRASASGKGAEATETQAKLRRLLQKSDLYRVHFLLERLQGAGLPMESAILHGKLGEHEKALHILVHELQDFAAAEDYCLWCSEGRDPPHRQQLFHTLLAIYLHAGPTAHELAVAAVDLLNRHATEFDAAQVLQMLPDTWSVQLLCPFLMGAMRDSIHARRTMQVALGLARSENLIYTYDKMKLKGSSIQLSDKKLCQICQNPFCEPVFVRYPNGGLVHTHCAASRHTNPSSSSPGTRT

T2: Vps8-FLAG (human) (UniProt Q8N3P4)
T2 sequence: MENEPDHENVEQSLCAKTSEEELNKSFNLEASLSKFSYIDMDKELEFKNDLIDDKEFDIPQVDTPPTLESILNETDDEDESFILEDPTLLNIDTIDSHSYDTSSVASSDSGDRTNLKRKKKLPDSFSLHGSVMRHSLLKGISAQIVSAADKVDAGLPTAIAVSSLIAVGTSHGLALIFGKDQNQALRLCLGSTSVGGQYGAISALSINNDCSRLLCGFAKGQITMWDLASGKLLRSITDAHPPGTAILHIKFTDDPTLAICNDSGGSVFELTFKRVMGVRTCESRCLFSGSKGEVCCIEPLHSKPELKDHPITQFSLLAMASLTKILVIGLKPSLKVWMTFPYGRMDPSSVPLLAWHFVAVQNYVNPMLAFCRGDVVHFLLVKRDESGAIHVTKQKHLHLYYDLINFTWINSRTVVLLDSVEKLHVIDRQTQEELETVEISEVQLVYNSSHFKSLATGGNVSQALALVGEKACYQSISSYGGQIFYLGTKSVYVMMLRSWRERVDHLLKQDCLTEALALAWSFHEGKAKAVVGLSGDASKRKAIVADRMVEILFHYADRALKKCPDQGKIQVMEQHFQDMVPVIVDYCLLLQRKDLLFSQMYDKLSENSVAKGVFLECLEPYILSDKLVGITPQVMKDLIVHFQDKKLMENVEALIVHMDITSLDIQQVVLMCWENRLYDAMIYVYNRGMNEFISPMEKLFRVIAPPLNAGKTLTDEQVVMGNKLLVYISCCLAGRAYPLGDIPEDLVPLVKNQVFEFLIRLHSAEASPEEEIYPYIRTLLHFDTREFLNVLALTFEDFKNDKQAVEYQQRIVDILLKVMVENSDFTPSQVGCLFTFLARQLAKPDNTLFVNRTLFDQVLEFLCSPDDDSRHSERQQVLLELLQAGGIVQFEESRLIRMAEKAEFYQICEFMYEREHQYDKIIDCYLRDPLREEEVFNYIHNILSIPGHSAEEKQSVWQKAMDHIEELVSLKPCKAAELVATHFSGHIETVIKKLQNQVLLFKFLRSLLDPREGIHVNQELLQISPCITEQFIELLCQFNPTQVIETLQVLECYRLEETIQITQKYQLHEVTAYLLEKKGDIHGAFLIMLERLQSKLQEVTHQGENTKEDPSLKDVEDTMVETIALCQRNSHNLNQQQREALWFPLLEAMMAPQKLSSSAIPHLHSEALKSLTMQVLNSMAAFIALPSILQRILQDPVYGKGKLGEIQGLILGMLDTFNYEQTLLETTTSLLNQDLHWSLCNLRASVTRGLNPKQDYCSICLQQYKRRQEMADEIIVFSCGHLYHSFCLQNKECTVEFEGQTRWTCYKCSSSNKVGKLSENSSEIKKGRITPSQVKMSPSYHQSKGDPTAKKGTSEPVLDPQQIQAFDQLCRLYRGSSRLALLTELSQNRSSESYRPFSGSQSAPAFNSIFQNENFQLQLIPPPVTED

B1: Vps11 (protein, UniProt Q9H270 1-941)
chain: MAAYLQWRRFVFFDKELVKEPLSNDGAAPGATPASGSAASKFLCLPPGITVCDSGRGSLVFGDMEGQIWFLPRSLQLTGFQAYKLRVTHLYQLKQHNILASVGEDEEGINPLVKIWNLEKRDGGNPLCTRIFPAIPGTEPTVVSCLTVHENLNFMAIGFTDGSVTLNKGDITRDRHSKTQILHKGNYPVTGLAFRQAGKTTHLFVVTTENVQSYIVSGKDYPRVELDTHGCGLRCSALSDPSQDLQFIVAGDECVYLYQPDERGPCFAFEGHKLIAHWFRGYLIIVSRDRKVSPKSEFTSRDSQSSDKQILNIYDLCNKFIAYSTVFEDVVDVLAEWGSLYVLTRDGRVHALQEKDTQTKLEMLFKKNLFEMAINLAKSQHLDSDGLAQIFMQYGDHLYSKGNHDGAVQQYIRTIGKLEPSYVIRKFLDAQRIHNLTAYLQTLHRQSLANADHTTLLLNCYTKLKDSSKLEEFIKKKSESEVHFDVETAIKVLRQAGYYSHALYLAENHAHHEWYLKIQLEDIKNYQEALRYIGKLPFEQAESNMKRYGKILMHHIPEQTTQLLKGLCTDYRPSLEGRSDREAPGCRANSEEFIPIFANNPRELKAFLEHMSEVQPDSPQGIYDTLLELRLQNWAHEKDPQVKEKLHAEAISLLKSGRFCDVFDKALVLCQMHDFQDGVLYLYEQGKLFQQIMHYHMQHEQYRQVISVCERHGEQDPSLWEQALSYFARKEEDCKEYVAAVLKHIENKNLMPPLLVVQTLAHNSTATLSVIRDYLVQKLQKQSQQIAQDELRVRRYREETTRIRQEIQELKASPKIFQKTKCSICNSALELPSVHFLCGHSFHQHCFESYSESDADCPTCLPENRKVMDMIRAQEQKRDLHDQFQHQLKCSNDSFSVIADYFGRGVFNKLTLLTDPPTARLTSSLEAGLQRDLLMHSRRGT
B2: Vps18 (protein, UniProt Q9P253 1-973)
chain: MASILDEYENSLSRSAVLQPGCPSVGIPHSGYVNAQLEKEVPIFTKQRIDFTPSERITSLVVSSNQLCMSLGKDTLLRIDLGKANEPNHVELGRKDDAKVHKMFLDHTGSHLLIALSSTEVLYVNRNGQKVRPLARWKGQLVESVGWNKALGTESSTGPILVGTAQGHIFEAELSASEGGLFGPAPDLYFRPLYVLNEEGGPAPVCSLEAERGPDGRSFVIATTRQRLFQFIGRAAEGAEAQGFSGLFAAYTDHPPPFREFPSNLGYSELAFYTPKLRSAPRAFAWMMGDGVLYGALDCGRPDSLLSEERVWEYPEGVGPGASPPLAIVLTQFHFLLLLADRVEAVCTLTGQVVLRDHFLEKFGPLKHMVKDSSTGQLWAYTERAVFRYHVQREARDVWRTYLDMNRFDLAKEYCRERPDCLDTVLAREADFCFRQRRYLESARCYALTQSYFEEIALKFLEARQEEALAEFLQRKLASLKPAERTQATLLTTWLTELYLSRLGALQGDPEALTLYRETKECFRTFLSSPRHKEWLFASRASIHELLASHGDTEHMVYFAVIMQDYERVVAYHCQHEAYEEALAVLARHRDPQLFYKFSPILIRHIPRQLVDAWIEMGSRLDARQLIPALVNYSQGGEVQQVSQAIRYMEFCVNVLGETEQAIHNYLLSLYARGRPDSLLAYLEQAGASPHRVHYDLKYALRLCAEHGHHRACVHVYKVLELYEEAVDLALQVDVDLAKQCADLPEEDEELRKKLWLKIARHVVQEEEDVQTAMACLASCPLLKIEDVLPFFPDFVTIDHFKEAICSSLKAYNHHIQELQREMEEATASAQRIRRDLQELRGRYGTVEPQDKCATCDFPLLNRPFYLFLCGHMFHADCLLQAVRPGLPAYKQARLEELQRKLGAAPPPAKGSARAKEAEGGAATAGPSREQLKADLDELVAAECVYCGELMIRSIDRPFIDPQRYEEEQLSWL

What was measured:
[1] = target: T1, Tgfbrap1-FLAG (human); assay: co-IP
[2] = target: T2, Vps8-FLAG (human); assay: co-IP

| Binder | binding [1] | binding [2] |
| --- | --- | --- |
| B1 | binds | binds |
| B2 | binds | binds |
